Results from patent US20140039803A1, “Method for Rapid Identification of Drug Targets and Drug Mechanisms of Action in Human Cells” (THE ROCKEFELLER UNIVERSITY, priority 2011, published 2014).

System: Kinesin-5
Experiment: RT-PCR and sequencing of target gene in resistant clones
Parameters: species or system human
Conditions: HCT-116 clones resistant to the inhibitor

Row | SMILES | fraction of resistant clones with kinesin-5 mutations [%]
1 | c1ccc(C2(c3nc(-c4ccncc4)cs3)CC2)cc1 [PCTP, 4-(2-(1-phenylcyclopropyl)thiazol-4-yl)pyridine] | ~15
2 | N[C@@H](CSC(c1ccccc1)(c1ccccc1)c1ccccc1)C(=O)O [STLC, S-trityl-L-cysteine] | ~30
